Laboratory results published in patent EP0227593A1, “Use of chelating agents” (THE HOSPITAL FOR SICK CHILDREN, priority 1985, dated 1987).
At least one structure is not confirmed: it was looked up by name or label, or the drawing left a doubt.

Key:
HL-60 cells = experiment: Colony growth of HL-60 cells; type: cell-based, human; details: 1 µm DFO
Protocol: HL-60 cells, a promyeloctic leukemia cell line originally developed by Dr. R. Gallo, NIH, were used. Cells were grown in RPMI supplemented with 10 % heat inactivated fetal calf serum (FCS, Flow Laboratories, Rockville, MO) and 2 mM glutamine (Gibco, Berkely, CA), at densities ranging from 1-2 x 10⁵/ml to 1-10⁶/ml, in a 5 % CO₂ humidified atmosphere at 37°C.
HL-60 cells (10⁴/ml) were plated in 0.8 % methycellulose in RPMI-1640 medium supplemented with 20 % heat inactivated (56°C, 30 min) fetal calf serum at a final volume of 1 ml/culture plate. Cultures were set up in duplicates and maintained at 37°C in a 5 % CO₂ humidified atmosphere. Deferoxamine was dissolved in iron-free RPMI culture medium and added at the initiation of culture at different concentrations (1-10 µM). Colonies were counted at 7 days using an inverted microscope. A cluster of more than 20 cells was defined as a colony. Individual colonies were plucked from culture plates spread on glass slides and morphologically assessed after preparation with Wright's stain and non-specific esterase in the presence of fluoride (29). The self renewal capacity of cells was assessed according to McCulloch et al (30). […] Cells from each dish were counted separately, and viability was assessed by trypan blue dye exclusion. […]

normal bone marrow cells = experiment: Colony formation of normal bone marrow cells (CFU-E, BFU-E, CFU-C); type: cell-based; details: DFO alone
[1] = tested on: PB leukemia cell colonies; experiment: Surface marker analysis of leukemia cell colonies grown with deferoxamine (immunocytochemical assay); type: cell-based, human; details: culture plates containing DFO 2.5 µM
Protocol: Cell Culture Procedure: 2 x 10⁵ T-depleted cells were incubated with 40 % RPMI-methylcellulose, 20 % PHA-LCM, 10 % FCS, irradiated feeder cells (10⁵/dish), 16.6 % RPMI in 35 mm Petri dishes. The culture dishes were placed into a specialized modular incubator chamber (Billups-Rosenberg, Del Mar, CA) in a humidified atmosphere of 5 % O₂, 5 % CO₂ and balanced nitrogen for 3-6 days. After 2 days of incubation, the culture dishes were carefully examined. Colonies were counted at day 4. A cluster of more than 20 cells was defined as a colony. Individual colonies were plucked from the culture plates and smeared on microscope slides for further evaluation, using Wright stain and non-specific esterase staining. For control, 2 x 10⁵ irradiated feeder cells were cultured in the same assay system in each experiment to exclude their potential for colony formation Immunocytochemical Method: The cell surface antigens of air dried smears were detected using monoclonal antibodies and intestinal alkaline phosphatase, as previously described. […] Immunofluorescence Method: The cell surface phenotype was determined by indirect cell-surface fluorescence: A fluorescein-conjugated goat anti-mouse IgG (FAb')₂ was used as second antibody. […] The percentage of cells with surface fluorescence was determined by counting cells stained in three replicate wells using an inverted phase-fluorescent microscope. […]

[2] = tested on: peripheral blood blast cell numbers; experiment: 20-day experimental treatment protocol in a leukemia patient: WBC and blast counts; type: in vivo, human; details: after the first 48 hours of DFO therapy
Protocol: With informed consent and following an approval by the Human Experimentation Committee of our institution, an experimental protocol was initiated: DFO, dissolved in sterile water was given by continuous infusion of 10 mg/kg/hour; cytosine arabinoside (Ara-C) dissolved in saline was given by i.v. push, 5 mg/kg/dose. When used consecutively, DFO was stopped 8-12 hours prior to cytosine arabinoside.
Deferoxamine (DFO) was given by continuous infusion 10 mg/kg/hr Cytosine-arabinoside (Ara-C) was given by i.v. push, 5 mg/kg/dose.

bone marrow cells = experiment: Surface marker analysis by immunofluorescence on bone marrow cells at conclusion of the 20-day treatment; type: in vivo, human; details: conclusion of 20-day treatment course
Protocol: Cell Culture Procedure: 2 x 10⁵ T-depleted cells were incubated with 40 % RPMI-methylcellulose, 20 % PHA-LCM, 10 % FCS, irradiated feeder cells (10⁵/dish), 16.6 % RPMI in 35 mm Petri dishes. The culture dishes were placed into a specialized modular incubator chamber (Billups-Rosenberg, Del Mar, CA) in a humidified atmosphere of 5 % O₂, 5 % CO₂ and balanced nitrogen for 3-6 days. After 2 days of incubation, the culture dishes were carefully examined. Colonies were counted at day 4. A cluster of more than 20 cells was defined as a colony. Individual colonies were plucked from the culture plates and smeared on microscope slides for further evaluation, using Wright stain and non-specific esterase staining. For control, 2 x 10⁵ irradiated feeder cells were cultured in the same assay system in each experiment to exclude their potential for colony formation Immunocytochemical Method: The cell surface antigens of air dried smears were detected using monoclonal antibodies and intestinal alkaline phosphatase, as previously described. This assay was performed to detect surface antigens on patients' PB and BM smears and colonies plucked from cultures. The slides were counter- stained in hematoxylin for light microscopy and the presence of surface antigen was indicated as bright red granular cellular inclusions. Morphologic details were well preserved, and a very high degree of correlation between morphology and surface antigen expression was observed. The intensity of staining was defined as strong (+++), moderate (++) and weak (+). Immunofluorescence Method: The cell surface phenotype was determined by indirect cell-surface fluorescence: A fluorescein-conjugated goat anti-mouse IgG (FAb')₂ was used as second antibody. The labelling was performed at room temperature in the presence of 0.2 % sodium azide. The percentage of cells with surface fluorescence was determined by counting cells stained in three replicate wells using an inverted phase-fluorescent microscope. Monoclonal Antibodies: The following monoclonal antibodies were used in these studies: anti-OKIa (Ortho Diagnostic Systems Inc. Raritan, NJ) to detect HLA-D framework antigen, anti-MY-7, anti-Mol and anti-MY-4 (coulter Immunology) to identify myelomonocytic markers, anti-Ig. anti-BA1, anti-BA2, anti-B1, and anti-B4 (Becton-Dickinson) to recognize cells of the B-cell lineage, anti-J5 (Coulter Immunology) to recognize cells bearing common ALL (CALLA) antigen and anti-Leu-1 and anti-Leu-4 (Coulter Immunology) to recognize cells of the T-cell lineage.
Immunologic surface markers were determined by immunofluorescence before and at the conclusion of the 20-day treatment course on bone marrow cells.

[3] = tested on: normal hematopoietic progenitor colony growth; experiment: CFU-GEMM assay on patient's PB during the first 48 hours of DFO; type: in vivo, human; details: versus pre-DFO treatment colony numbers

CC(=O)N(O)CCCCCNC(=O)CCC(=O)N(O)CCCCCNC(=O)CCC(=O)N(O)CCCCCN [DFO, desferioxamine methanesulfonate]
effect on HL-60 colony growth (HL-60 cells): did not have any effect
colony formation of normal bone marrow cells (normal bone marrow cells): significant inhibitory effect
non-specific esterase staining of cells from colonies exposed to DFO [1]: staining intensely
WBC and blast counts [2]: reached a plateau
% Positive Cells B1 (bone marrow cells): Negative
% Positive Cells CALLA (bone marrow cells): Negative
% Positive Cells E-Rosettes (bone marrow cells): Negative
% Positive Cells Leu-1 (bone marrow cells): Negative
Erythroid and granulocytic progenitor colony formation [3]: increased several-fold
